Source: the supplement of paper PMC10849652
Some of the results follow.

Protein sequences, listed by entry. Tags and fused reporters are not part of them. Lines headed by an entry give the natural chain unless they say otherwise; changes in a name come on top.
UniProt Q9NX94: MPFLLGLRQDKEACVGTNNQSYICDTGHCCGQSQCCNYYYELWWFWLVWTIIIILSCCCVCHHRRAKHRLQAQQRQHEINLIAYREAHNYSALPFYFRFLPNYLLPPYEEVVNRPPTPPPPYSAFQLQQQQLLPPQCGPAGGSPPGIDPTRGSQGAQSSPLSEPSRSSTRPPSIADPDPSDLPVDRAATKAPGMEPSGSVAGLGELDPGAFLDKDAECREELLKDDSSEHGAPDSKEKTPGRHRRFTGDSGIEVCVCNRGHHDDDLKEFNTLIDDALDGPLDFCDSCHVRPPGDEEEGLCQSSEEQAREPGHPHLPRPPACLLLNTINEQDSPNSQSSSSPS
UniProt O43516: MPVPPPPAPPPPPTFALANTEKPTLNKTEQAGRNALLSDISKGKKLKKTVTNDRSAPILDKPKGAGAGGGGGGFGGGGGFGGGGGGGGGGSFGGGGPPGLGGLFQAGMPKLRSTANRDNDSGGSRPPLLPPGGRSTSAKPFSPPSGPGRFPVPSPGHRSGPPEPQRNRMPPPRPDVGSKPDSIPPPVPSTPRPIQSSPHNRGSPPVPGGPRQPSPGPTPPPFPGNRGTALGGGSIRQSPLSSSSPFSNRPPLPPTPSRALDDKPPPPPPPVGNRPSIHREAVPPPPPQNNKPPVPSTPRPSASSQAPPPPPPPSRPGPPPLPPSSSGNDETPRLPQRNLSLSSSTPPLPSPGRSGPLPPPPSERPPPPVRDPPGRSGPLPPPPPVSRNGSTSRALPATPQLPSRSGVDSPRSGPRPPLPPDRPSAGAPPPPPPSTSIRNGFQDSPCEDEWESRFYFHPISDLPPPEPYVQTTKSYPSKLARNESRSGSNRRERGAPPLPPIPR
UniProt Q6UXN9, whole entry, looked up: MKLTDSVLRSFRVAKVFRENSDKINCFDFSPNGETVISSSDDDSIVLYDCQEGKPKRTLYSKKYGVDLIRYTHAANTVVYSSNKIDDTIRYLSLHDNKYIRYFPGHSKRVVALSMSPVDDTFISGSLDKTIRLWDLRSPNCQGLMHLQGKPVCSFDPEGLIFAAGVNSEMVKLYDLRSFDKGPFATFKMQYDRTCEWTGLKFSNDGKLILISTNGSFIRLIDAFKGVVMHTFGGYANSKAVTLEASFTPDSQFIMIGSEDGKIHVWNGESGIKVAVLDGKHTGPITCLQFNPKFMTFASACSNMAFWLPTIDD
UniProt Q2M389: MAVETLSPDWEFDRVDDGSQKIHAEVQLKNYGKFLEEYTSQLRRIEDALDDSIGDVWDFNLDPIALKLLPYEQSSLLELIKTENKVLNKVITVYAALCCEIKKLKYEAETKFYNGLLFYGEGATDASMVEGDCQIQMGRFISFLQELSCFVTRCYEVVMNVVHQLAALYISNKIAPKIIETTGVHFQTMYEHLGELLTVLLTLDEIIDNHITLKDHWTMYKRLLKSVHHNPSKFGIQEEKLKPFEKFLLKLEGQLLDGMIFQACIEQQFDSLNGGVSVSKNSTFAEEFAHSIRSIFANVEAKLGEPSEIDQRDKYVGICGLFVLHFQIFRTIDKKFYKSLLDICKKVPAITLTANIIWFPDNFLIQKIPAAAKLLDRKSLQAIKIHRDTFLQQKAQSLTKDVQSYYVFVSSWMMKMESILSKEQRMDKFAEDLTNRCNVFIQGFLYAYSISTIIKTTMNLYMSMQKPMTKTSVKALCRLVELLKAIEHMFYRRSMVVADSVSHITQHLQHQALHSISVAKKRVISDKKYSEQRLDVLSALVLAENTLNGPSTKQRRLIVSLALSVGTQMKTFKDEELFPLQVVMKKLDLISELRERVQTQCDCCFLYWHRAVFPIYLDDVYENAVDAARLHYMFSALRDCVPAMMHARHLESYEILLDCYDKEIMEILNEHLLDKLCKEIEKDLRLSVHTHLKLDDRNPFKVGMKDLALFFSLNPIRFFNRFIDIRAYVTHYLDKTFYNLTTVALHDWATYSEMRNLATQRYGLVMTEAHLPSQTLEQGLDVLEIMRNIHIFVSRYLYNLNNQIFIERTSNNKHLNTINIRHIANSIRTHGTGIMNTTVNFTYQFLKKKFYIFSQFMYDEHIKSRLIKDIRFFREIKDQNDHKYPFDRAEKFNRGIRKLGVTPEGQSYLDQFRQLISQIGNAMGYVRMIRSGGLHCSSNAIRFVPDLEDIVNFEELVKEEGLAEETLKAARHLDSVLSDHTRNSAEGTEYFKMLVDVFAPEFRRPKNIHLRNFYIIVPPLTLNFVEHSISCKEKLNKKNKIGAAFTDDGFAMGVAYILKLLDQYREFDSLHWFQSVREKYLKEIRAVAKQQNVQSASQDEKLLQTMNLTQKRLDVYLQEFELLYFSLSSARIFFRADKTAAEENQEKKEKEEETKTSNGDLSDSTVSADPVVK
UniProt Q5JSD2: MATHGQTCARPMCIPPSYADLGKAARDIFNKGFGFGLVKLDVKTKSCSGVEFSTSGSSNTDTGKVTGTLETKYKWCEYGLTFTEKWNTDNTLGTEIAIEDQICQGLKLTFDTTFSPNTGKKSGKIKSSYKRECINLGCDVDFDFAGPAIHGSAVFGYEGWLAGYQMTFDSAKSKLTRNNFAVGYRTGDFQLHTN
UniProt Q969T9: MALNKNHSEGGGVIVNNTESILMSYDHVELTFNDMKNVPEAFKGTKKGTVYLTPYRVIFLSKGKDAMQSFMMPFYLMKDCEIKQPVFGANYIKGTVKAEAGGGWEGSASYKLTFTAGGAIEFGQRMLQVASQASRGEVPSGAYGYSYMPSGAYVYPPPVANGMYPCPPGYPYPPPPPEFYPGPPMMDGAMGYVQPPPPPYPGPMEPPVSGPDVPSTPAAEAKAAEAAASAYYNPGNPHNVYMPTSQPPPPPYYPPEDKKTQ
UniProt O15240: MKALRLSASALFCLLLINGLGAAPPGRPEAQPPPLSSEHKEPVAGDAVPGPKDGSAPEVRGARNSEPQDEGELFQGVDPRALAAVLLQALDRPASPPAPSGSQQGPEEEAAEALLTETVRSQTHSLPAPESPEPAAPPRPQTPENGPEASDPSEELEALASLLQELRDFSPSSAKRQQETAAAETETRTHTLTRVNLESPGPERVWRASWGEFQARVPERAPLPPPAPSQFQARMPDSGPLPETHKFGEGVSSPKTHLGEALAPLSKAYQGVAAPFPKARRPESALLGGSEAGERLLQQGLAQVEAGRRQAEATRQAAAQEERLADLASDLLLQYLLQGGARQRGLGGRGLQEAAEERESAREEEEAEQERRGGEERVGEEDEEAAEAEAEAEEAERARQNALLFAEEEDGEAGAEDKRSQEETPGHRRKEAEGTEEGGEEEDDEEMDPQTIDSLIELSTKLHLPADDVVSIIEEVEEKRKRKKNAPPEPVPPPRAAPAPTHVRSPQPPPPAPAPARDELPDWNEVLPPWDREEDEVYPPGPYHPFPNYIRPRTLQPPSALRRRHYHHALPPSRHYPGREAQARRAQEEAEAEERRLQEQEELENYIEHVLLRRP
UniProt Q7Z5K2: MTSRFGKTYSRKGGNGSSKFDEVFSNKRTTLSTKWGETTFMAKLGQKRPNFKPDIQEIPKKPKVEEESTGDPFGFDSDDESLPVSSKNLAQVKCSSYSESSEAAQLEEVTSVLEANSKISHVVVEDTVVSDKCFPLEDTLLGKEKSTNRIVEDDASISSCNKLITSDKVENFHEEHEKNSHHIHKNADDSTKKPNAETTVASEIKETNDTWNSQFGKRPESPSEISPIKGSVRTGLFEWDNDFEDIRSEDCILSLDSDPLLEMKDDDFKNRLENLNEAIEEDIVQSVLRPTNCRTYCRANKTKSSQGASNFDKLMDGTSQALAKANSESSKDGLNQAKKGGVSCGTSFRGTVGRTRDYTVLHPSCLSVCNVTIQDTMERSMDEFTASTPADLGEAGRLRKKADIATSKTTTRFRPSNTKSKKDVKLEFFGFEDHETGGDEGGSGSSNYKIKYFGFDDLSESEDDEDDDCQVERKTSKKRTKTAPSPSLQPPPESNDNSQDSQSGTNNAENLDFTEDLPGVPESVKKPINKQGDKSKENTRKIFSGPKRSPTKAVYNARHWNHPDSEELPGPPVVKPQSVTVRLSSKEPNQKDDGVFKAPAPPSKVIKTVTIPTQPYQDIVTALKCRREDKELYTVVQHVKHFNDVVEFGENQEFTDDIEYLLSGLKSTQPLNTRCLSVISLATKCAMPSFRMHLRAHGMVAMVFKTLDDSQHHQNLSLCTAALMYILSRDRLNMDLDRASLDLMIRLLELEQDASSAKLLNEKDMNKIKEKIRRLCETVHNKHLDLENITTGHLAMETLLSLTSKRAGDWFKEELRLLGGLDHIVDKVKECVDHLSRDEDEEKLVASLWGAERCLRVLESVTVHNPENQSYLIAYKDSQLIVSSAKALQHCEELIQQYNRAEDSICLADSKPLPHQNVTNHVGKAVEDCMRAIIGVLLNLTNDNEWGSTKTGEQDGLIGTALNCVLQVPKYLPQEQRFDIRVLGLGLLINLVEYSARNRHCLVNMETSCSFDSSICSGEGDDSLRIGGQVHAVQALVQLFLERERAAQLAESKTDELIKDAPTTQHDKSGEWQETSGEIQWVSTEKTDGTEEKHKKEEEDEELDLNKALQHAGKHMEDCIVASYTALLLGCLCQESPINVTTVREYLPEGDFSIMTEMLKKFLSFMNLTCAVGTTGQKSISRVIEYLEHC
UniProt Q9UEU0: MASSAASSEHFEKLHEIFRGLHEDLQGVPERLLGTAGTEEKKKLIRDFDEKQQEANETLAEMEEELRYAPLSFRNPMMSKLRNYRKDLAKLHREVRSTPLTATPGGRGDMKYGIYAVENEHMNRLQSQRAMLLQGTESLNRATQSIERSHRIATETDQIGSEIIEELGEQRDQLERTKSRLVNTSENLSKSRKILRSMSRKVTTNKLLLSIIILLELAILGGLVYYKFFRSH
UniProt P57081: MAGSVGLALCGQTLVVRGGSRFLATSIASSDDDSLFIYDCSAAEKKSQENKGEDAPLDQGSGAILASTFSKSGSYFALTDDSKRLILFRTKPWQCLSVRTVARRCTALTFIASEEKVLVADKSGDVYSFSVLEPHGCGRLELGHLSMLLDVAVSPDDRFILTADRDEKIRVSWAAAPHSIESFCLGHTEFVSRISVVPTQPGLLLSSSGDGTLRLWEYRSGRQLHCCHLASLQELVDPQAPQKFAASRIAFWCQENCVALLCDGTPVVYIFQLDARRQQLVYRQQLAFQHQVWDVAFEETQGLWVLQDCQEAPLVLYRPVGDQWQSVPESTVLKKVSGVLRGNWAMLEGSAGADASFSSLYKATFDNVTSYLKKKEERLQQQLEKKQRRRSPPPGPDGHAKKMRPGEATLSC

How the values were obtained:
Assay in all cases: log2 fold change, soluble protein after heating vs DMSO (PISA); higher = thermal stabilisation; K562 cells, 10 uM, 30 min; active = over 0.2 and 3.5 SD of the protein, either way, in both replicates (recomputed)
[1] = compound: C1=CC=C(C=C1)[C@H](COC2=CC3=C(C=C2)NC(=O)N3)NC(=O)C4=CC=CN(C4=O)CC5=CC(=C(C=C5)F)F
How it was run: (§1)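 Soluble protein was quantified by TMTpro 16plex LC-MS/MS after channel sums were equalised. It was obtained as the supernatant after 21,000xg for 90 min from pooled aliquots of K562 cells (2×10^6 cells/mL, 10 μM compound, 30 min) heated for 3 min across 48°C-58°C and extracted in PBS with 0.5% NP-40 at 4°C. Thermal stability values are relative to control samples and come from duplicates. They are given as log2 fold changes.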

[2] = compound: CC1=C(SC2=C1C(=N[C@H](C3=NN=C(N32)C)CC(=O)N)C4=CC=C(C=C4)Cl)C
How it was run: as §1

[3] = compound: CC1=C2C(=CC=C1)N=C(N(C2=O)C3=CC=CC=C3C)CN4C=NC5=C(N=CN=C54)N
How it was run: as §1

[4] = compound: Cc1sc2c(c1C)C(c1ccc(Cl)cc1)=N[C@@H](CC(=O)OC(C)(C)C)c1nnc(C)n1-2
How it was run: as §1

[5] = compound: c1ccc([C@@H]2C[C@H]2NC2CCNCC2)cc1
How it was run: as §1

Measured: log2 fold change

WBP1L isoform 2 (UniProt Q9NX94)
inactive: [1] 0.29

WIPF1 isoform 3 (UniProt O43516)
inactive: [1] -0.012 | [2] 0.159 | [3] -0.007 | [4] 0.102 | [5] 0.149

WDR82 (UniProt Q6UXN9)
inactive: [1] 0.021 | [2] -0.124 | [3] -0.084 | [4] 0.078 | [5] -0.01

WASHC4 (UniProt Q2M389)
inactive: [1] -0.042 | [2] -0.037 | [3] 0.128 | [4] 0.056 | [5] 0.06

VDAC2 (UniProt Q5JSD2)
inactive: [1] -0.12

Three neighbouring records already listed, for reference:
WDR82 (UniProt Q6UXN9)
inactive: [1] 0.021 | [2] -0.124 | [3] -0.084 | [4] 0.078 | [5] -0.01

WASHC4 (UniProt Q2M389)
inactive: [1] -0.042 | [2] -0.037 | [3] 0.128 | [4] 0.056 | [5] 0.06

VDAC2 (UniProt Q5JSD2)
inactive: [1] -0.12

Going on with the list:

VDAC2 (UniProt Q5JSD1)
inactive: [1] -0.217

WBP2 (UniProt Q969T9)
inactive: [1] 0.091 | [2] 0.025 | [3] -0.012 | [4] -0.032 | [5] 0.021

VGF (UniProt O15240)
inactive: [1] -0.668

WAPL isoform 3 (UniProt Q7Z5K2)
inactive: [1] -0.116 | [2] 0.021 | [3] 0.138 | [4] -0.08 | [5] 0.095

VTI1B (UniProt Q9UEU0)
inactive: [1] 0.015 | [2] -0.002 | [3] 0.045 | [4] -0.032 | [5] 0.02

WDR4 isoform 3 (UniProt P57081)
inactive: [1] -0.18

VPS35L (UniProt Q7Z3J2)
inactive: [1] -0.046 | [2] -0.13 | [3] 0.011 | [4] -0.024 | [5] 0
